Experimental data reported in patent US7118745B1, “Engineering antibodies that bind irreversibly” (The Regents of the University of California, priority 1999, dated 2006).
Some results were stated once for a whole list of compounds, not compound by compound. At least one structure is not confirmed: it was looked up by name or label, or the drawing left a doubt.

By UniProt entry, the sequences of proteins in these tests, tags left out. Residues count along the entry.
UniProt P02768, 25-609: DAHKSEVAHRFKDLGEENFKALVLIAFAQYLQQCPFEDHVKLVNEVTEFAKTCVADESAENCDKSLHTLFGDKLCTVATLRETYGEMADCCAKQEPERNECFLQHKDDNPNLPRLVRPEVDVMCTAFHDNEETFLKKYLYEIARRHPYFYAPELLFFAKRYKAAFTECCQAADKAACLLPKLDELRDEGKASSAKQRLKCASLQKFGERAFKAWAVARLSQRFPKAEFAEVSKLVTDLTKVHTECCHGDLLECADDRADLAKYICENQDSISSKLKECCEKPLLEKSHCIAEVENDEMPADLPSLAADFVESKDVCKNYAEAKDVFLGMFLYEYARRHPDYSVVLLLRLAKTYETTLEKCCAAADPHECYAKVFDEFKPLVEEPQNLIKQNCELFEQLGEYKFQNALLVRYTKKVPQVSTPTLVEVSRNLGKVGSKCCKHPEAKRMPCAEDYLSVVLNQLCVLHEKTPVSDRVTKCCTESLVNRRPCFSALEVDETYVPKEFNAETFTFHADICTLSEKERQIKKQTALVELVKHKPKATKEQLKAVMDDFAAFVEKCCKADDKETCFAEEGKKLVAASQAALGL

Target: human serum albumin (Homo sapiens, UniProt P02768)
Experiment: Stability of 111In-labeled bifunctional chelates incubated with human serum albumin (TLC)
Type: in vitro ADME
Conditions: after 20 hrs; 20 mM Hepes, pH 7.4, 37° C.; 1 mM free sulfhydryl as human serum albumin; chelate 40 μM
Experimental: The electrophilic chelates AABE, CABE, BABE were labeled with indium-111 and incubated in a Hepes buffered solution at physiological pH and temperature (20 mM Hepes, pH 7.4, 37° C.) containing 1 mM free sulfhydryl groups in the form of human serum albumin-approximating the concentration of thiols in plasma.
The reactive chelates 5–7 and aminobenzyl-EDTA (“ABE”) were labeled with ^111In and analyzed by TLC (50:50 Methanol/10% NaOAc pH8.2) to show complete chelation. To 0.5 mL of human serum albumin solution was added 2 μl of one of the labeled chelates. […] The vials were mixed by manual agitation, and 2 μl was removed and analyzed by TLC.
The fraction unreacted is plotted versus incubation time in FIG. 6. After 20 hrs, >95% of the In-AABE and In-CABE molecules were unreacted, while most of the In-BABE was attached to albumin. This confirmed the expectation that AABE and CABE are stable, and are good candidates for pretargeting. We infer that these chelates should be unreactive in blood for the length of time needed for pretargeting (40 min–4 hrs); if not, many other choices are available.

Compound | fraction of chelate molecules unreacted
C=CC(=O)Nc1ccc(CC(CN(CC(=O)O)CC(=O)O)N(CC(=O)O)CC(=O)O)cc1 (centres unmarked) [AABE, Acrylamidobenzyl-EDTA] | > 95%
O=C(O)CN(CC(=O)O)CC(Cc1ccc(NC(=O)CCl)cc1)N(CC(=O)O)CC(=O)O (centres unmarked) [CABE, chloroacetylamidobenzyl] | > 95%
